This is one part of the list. The main result of the screen is listed elsewhere. These columns were measured beside it and carry no call. Compounds called inactive in the main read-out are mostly missing here. The note in brackets gives the kind of curve behind each potency; many fits are weak.
Assay: qHTS Assay for Lipid Storage Modulators in Drosophila S3 Cells;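 for cell number change: cells counted by Cell Tracker Red CMTPX staining in the red channel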
Details: BODIPY lipid droplet fluorescence, 18-24 h; for cell number change: measured here: cell count max response, cells fed with added oleic acid
Summary of the method: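 Drosophila S3 cells got compounds at several concentrations plus oleic acid (400 uM solution). Laser-scanning cytometry with 488 nm excitation read lipid droplets at 500-530 nm and cells at 575-640 nm. Percent activity was relative to 20 uM Triacsin C.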

[1] = measured here: lipid fluorescence (Fed channel) AC50, cells fed with added oleic acid
[2] = measured here: cell number channel AC50, cells fed with added oleic acid

Row | SMILES | cell number change [%] | AC50 [1] | AC50 [2]
1 | O=S(=O)(c1ccc(Br)cc1)N1CCN(Cc2ccco2)CC1 | -12.4 | 29.1 µM [falling, single point] | 
2 | Cc1ccc(OCC(=O)N(c2ccccn2)C2CCCCC2)c(C)c1 | 7.12 | 18.4 µM [rising, partial curve, poor fit] | 
3 | CCOC(=O)CSCC(=O)Nc1ccc(S(=O)(=O)N2CCCCC2)cc1 | -0.289 | 32.6 µM [rising, single point] | 
4 | Cc1cc2cc(CNC(=O)C(C)Oc3ccccc3)ccc2n1C (configuration not stated) | 19.2 | 4.61 µM [rising, full curve] | 
5 | Cc1nc(-c2ccccn2)nc(SCC(=O)N2CCOCC2)c1Cl | 18.1 | 25.9 µM [rising, single point] | 
6 | Cc1ccc(Oc2ccc(NC(=O)CSc3n[nH]c(N)n3)cc2)cc1 | -1.5 | 0.82 µM [rising, full curve, poor fit] | 5.17 µM [rising, single point]
7 | O=C(CCOc1ccccc1)Nc1ccc(S(=O)(=O)Nc2ncccn2)cc1 | 9.34 | 3.66 µM [rising, partial curve] | 
8 | COC(=O)Cc1[nH]n(-c2nc3ccccc3s2)c(=O)c1C(C)=Nc1ccc(OC)cc1 | -57.7 | 1.64 µM [falling, partial curve, poor fit] | 32.6 µM [falling, partial curve]
9 | Cc1cccc2sc(NC(=O)CN(C)S(=O)(=O)c3ccc(Br)s3)nc12 | -1.08 | 4.11 µM [rising, partial curve, poor fit] | 0.184 µM [rising, full curve, poor fit]
10 | CNC(=S)NNc1ccccc1[N+](=O)[O-] | -18.7 |  | 
11 | CCc1nccn1S(=O)(=O)c1cc(C)c(OC)cc1C | -43.5 | 0.651 µM [falling, single point] | 29.1 µM [falling, single point]
12 | COC(C(=O)Nc1cccc(F)c1)c1ccccc1 (configuration not stated) | 4.33 | 0.092 µM [falling, full curve, poor fit] | 
13 | CCOc1cccc(CNc2ccc(O)cc2)c1OCc1ccc(Cl)cc1Cl | -1.23 | 25.9 µM [falling, partial curve] | 
14 | COc1cc2[nH]c(C(=O)N3CCc4ccccc43)cc2c(OC)c1OC | 15 | 4.61 µM [rising, partial curve] | 
15 | Cc1nc2sc3c(NCc4ccco4)ncnc3c2c2c1COC(C)(C)C2 | -11.3 | 14.6 µM [falling, single point] | 
16 | Cc1cc2c(cc1S(=O)(=O)NCCc1ccc(Cl)cc1)OCC(=O)N2 | 0.865 | 32.6 µM [falling, single point] | 
17 | Cc1ccc(CSc2nnc(-c3cccnc3)o2)cc1 | 29.3 |  | 0.82 µM [rising, full curve, poor fit]
18 | CCOC(=O)C1=C(O)c2ccccc2C(=O)/C1=C\c1ccc(CC)cc1 | -103 | 29.1 µM [falling, single point] | 10.3 µM [falling, partial curve, poor fit]
19 | CCOc1ccc(-c2csc(NC(=O)C3CCCO3)n2)cc1 (configuration not stated) |  |  | 6.51 µM [rising, single point]
20 | CCOC(=O)c1ccc(NC(=S)NNC(C)(C)C)cc1 | 5.19 | 0.651 µM [falling, single point] | 

Row | SMILES | cell number change [%] | AC50 [1] | AC50 [2]
21 | CC(=O)c1ccc(-c2cccs2)s1 | -51.5 |  | 
22 | COC(=O)c1nc(NC(=O)c2ccc(Br)cc2)n[nH]1 | 3.53 | 29.1 µM [rising, single point] | 
23 | CC1=C(C)/C(=N/OC(=O)c2cccc([N+](=O)[O-])c2)C=CC1=O | -64.2 | 11.6 µM [falling, partial curve] | 13 µM [falling, partial curve]
24 | Cc1cc(C)nc(SCC(=O)Nc2ccc(S(=O)(=O)N3CCCCC3)cc2)n1 | 83.8 | 0.58 µM [rising, single point] | 2.91 µM [rising, full curve]
25 | Cc1cccc(-c2nc(CSc3nc4c(c(=O)[nH]3)CCC4)c(C)o2)c1 | 19.4 | 9.2 µM [rising, partial curve] | 
26 | CCOc1ccc(N(C(C)C(=O)NN=C2CCCCCCC2)S(C)(=O)=O)cc1 (configuration not stated) | 24.5 | 29.1 µM [rising, single point] | 
27 | O=C1C=C(NCC2CCCO2)C2(CCCCC2)O1 (configuration not stated) | 110 |  | 4.11 µM [rising, full curve, poor fit]
28 | C/C(=N\NC(=O)c1ccn(C)n1)c1ccc(NC(=O)C2CCC2)cc1 |  | 10.3 µM [falling, partial curve] | 
29 | COC(=O)CS(=O)(=O)c1nnc([C@H](Cc2ccccc2)NC(=O)OC(C)(C)C)o1 | -146 | 25.9 µM [falling, partial curve] | 25.9 µM [falling, partial curve]
30 | COc1ccc(C(=O)NCCc2nnc3ccc(SCC(=O)N4CCCC4)nn23)cc1 | -9.72 | 0.731 µM [rising, single point] | 
31 | COCc1cc(=O)[nH]c2cc(NC(=O)C(F)(F)F)c(C)cc12 | -8.92 |  | 
32 | COc1ccc(-n2ncc3c(=O)n(CC(=O)Nc4ccc5c(c4)OCCO5)cnc32)cc1 | 34.8 | 29.1 µM [falling, single point] | 16.4 µM [rising, single point]
33 | CC(C)C(NC(=O)C1CCC(C(C)(C)C)CC1)C(=O)NCCCN1CCCCC1 (configuration not stated) | -39.2 | 0.184 µM [falling, full curve, poor fit] | 
34 | C=C[C@@H]1c2c(F)cccc2N(S(=O)(=O)c2ccc(C)cc2)[C@H](c2ccc(OC(C)=O)cc2)C1(C#N)C#N | -4.42 |  | 6.51 µM [falling, single point]
35 | Cc1cc(NC(=O)Nc2ccc(OCc3ccccc3)cc2)n(C)n1 | 9.41 | 0.164 µM [rising, full curve, poor fit] | 
36 | Cc1cc(Cl)c(S(=O)(=O)NCC2CCCO2)cc1OCC(N)=O (configuration not stated) | 17.9 | 18.4 µM [rising, single point] | 
37 | N#CC1=C(N)N=C(SCc2cccc3ccccc23)C(C(N)=O)C12CCCCC2 (configuration not stated) | -65.2 | 29.1 µM [falling, single point] | 29.1 µM [falling, single point]
38 | COc1cccc(C(=O)Nc2ccc(S(=O)(=O)Nc3onc(C)c3C)cc2)c1 | -93.1 |  | 0.58 µM [falling, full curve]
39 | O=C(O)c1ccc(NCc2cccnc2)cc1 | -10.2 |  | 
40 | COc1ccc(C(=O)N/C(=C\c2ccccc2)C(=O)NCCCn2ccnc2)cc1 | -10.5 |  | 

Row | SMILES | cell number change [%] | AC50 [1] | AC50 [2]
41 | COCCn1c(COc2cccc(OC)c2)nnc1SCC(=O)NC1CCCCC1 | 0.427 |  | 
42 | CCN(CC)CCNC(=O)c1ccc(NC(=O)CC(NC(=O)c2ccccc2Cl)c2ccccc2)cc1 (configuration not stated) | -5.41 | 6.51 µM [rising, single point] | 
43 | Nc1n[nH]c(CCCO)n1 | -16.7 | 0.00517 µM [falling, full curve, poor fit] | 6.51 µM [rising, single point]
44 | CN(Cc1cccnc1)C(=O)c1cc(COc2ccc3ncccc3c2)on1 | -44.8 | 11.6 µM [falling, partial curve] | 2.31 µM [falling, full curve]
45 | CC(=O)Nc1ccc(Nc2cc(C)nc3c(-c4ccc(Cl)cc4)cnn23)cc1 | -20.6 |  | 
46 | Cc1ccc(C2C(N)C(=O)N2c2ccc(C)cc2)cc1 (configuration not stated) | 13.5 | 4.61 µM [falling, full curve, poor fit] | 
47 | COC(=O)Nc1ccc(S(=O)(=O)N2CCCCC2C(=O)NCc2ccco2)cc1 (configuration not stated) | 54 |  | 8.2 µM [rising, single point]
48 | Cc1cc2oc(C(=O)NCc3ccc4c(c3)OCO4)c(C)c2cc1C |  |  | 2.06 µM [rising, single point]
49 | COc1cc2c(cc1OC)C(CC(=O)O)N(C(=O)CC1CCCC1)CC2 (configuration not stated) | -7.89 |  | 
50 | Cc1cc(C)n(C(C)CC(=O)Nc2ccc(-c3ccno3)cc2)n1 (configuration not stated) | -15.2 | 25.9 µM [falling, single point] | 
51 | COc1ccc(/C=C(/NC(=O)c2ccco2)C(=O)Nc2ccc(C(C)=O)cc2)cc1 | 62.5 |  | 25.9 µM [rising, partial curve, poor fit]
52 | Cc1c(C(N)=O)c(N)c(C(=O)c2ccccc2)n1-c1ccccc1 | 2.06 | 0.00461 µM [rising, full curve, poor fit] | 
53 | O=C(CN1C(=O)c2ccccc2S1(=O)=O)NCCSc1ccccc1 | -45.4 | 0.146 µM [falling, partial curve] | 2.06 µM [falling, full curve, poor fit]
54 | CCOC(=O)C1(Cc2ccc(OC)cc2)CCN(C(=O)CN2CCOC2=O)CC1 | 8.87 | 6.51 µM [falling, partial curve] | 
55 | O=[N+]([O-])c1ccc(N/N=C/c2c[nH]c3ccccc23)c(S(=O)(=O)Nc2ccc(Cl)cc2)c1 | -2.94 | 0.092 µM [falling, full curve, poor fit] | 
56 | COc1ccccc1Cn1c(=S)[nH]c2cc(C(=O)NCCN3CCOCC3)ccc2c1=O | 1.94 |  | 
57 | CCC(c1nnnn1Cc1ccccc1)N(Cc1ccco1)Cc1cc2cc(OC)ccc2[nH]c1=O (configuration not stated) | -12.6 | 0.0058 µM [rising, full curve, poor fit] | 
58 | CCc1nn(C)c(-c2n[nH]c(=S)n2N)c1Cl | 20.1 | 1.84 µM [rising, partial curve] | 

For convenience, some entries already given:
Row | SMILES | cell number change [%] | AC50 [1] | AC50 [2]
42 | CCN(CC)CCNC(=O)c1ccc(NC(=O)CC(NC(=O)c2ccccc2Cl)c2ccccc2)cc1 (configuration not stated) | -5.41 | 6.51 µM [rising, single point] | 
43 | Nc1n[nH]c(CCCO)n1 | -16.7 | 0.00517 µM [falling, full curve, poor fit] | 6.51 µM [rising, single point]
44 | CN(Cc1cccnc1)C(=O)c1cc(COc2ccc3ncccc3c2)on1 | -44.8 | 11.6 µM [falling, partial curve] | 2.31 µM [falling, full curve]
45 | CC(=O)Nc1ccc(Nc2cc(C)nc3c(-c4ccc(Cl)cc4)cnn23)cc1 | -20.6 |  | 
46 | Cc1ccc(C2C(N)C(=O)N2c2ccc(C)cc2)cc1 (configuration not stated) | 13.5 | 4.61 µM [falling, full curve, poor fit] | 

Reference: PubChem BioAssay AID2685 (National Center for Advancing Translational Sciences (NCATS), 2010)
